# According to article PMC7999107:
# Chains of the proteins cited; added tags and fusions are not shown. Lines headed by an entry give the natural chain unless they say otherwise; changes in a name come on top.
# UniProt B2RWS6: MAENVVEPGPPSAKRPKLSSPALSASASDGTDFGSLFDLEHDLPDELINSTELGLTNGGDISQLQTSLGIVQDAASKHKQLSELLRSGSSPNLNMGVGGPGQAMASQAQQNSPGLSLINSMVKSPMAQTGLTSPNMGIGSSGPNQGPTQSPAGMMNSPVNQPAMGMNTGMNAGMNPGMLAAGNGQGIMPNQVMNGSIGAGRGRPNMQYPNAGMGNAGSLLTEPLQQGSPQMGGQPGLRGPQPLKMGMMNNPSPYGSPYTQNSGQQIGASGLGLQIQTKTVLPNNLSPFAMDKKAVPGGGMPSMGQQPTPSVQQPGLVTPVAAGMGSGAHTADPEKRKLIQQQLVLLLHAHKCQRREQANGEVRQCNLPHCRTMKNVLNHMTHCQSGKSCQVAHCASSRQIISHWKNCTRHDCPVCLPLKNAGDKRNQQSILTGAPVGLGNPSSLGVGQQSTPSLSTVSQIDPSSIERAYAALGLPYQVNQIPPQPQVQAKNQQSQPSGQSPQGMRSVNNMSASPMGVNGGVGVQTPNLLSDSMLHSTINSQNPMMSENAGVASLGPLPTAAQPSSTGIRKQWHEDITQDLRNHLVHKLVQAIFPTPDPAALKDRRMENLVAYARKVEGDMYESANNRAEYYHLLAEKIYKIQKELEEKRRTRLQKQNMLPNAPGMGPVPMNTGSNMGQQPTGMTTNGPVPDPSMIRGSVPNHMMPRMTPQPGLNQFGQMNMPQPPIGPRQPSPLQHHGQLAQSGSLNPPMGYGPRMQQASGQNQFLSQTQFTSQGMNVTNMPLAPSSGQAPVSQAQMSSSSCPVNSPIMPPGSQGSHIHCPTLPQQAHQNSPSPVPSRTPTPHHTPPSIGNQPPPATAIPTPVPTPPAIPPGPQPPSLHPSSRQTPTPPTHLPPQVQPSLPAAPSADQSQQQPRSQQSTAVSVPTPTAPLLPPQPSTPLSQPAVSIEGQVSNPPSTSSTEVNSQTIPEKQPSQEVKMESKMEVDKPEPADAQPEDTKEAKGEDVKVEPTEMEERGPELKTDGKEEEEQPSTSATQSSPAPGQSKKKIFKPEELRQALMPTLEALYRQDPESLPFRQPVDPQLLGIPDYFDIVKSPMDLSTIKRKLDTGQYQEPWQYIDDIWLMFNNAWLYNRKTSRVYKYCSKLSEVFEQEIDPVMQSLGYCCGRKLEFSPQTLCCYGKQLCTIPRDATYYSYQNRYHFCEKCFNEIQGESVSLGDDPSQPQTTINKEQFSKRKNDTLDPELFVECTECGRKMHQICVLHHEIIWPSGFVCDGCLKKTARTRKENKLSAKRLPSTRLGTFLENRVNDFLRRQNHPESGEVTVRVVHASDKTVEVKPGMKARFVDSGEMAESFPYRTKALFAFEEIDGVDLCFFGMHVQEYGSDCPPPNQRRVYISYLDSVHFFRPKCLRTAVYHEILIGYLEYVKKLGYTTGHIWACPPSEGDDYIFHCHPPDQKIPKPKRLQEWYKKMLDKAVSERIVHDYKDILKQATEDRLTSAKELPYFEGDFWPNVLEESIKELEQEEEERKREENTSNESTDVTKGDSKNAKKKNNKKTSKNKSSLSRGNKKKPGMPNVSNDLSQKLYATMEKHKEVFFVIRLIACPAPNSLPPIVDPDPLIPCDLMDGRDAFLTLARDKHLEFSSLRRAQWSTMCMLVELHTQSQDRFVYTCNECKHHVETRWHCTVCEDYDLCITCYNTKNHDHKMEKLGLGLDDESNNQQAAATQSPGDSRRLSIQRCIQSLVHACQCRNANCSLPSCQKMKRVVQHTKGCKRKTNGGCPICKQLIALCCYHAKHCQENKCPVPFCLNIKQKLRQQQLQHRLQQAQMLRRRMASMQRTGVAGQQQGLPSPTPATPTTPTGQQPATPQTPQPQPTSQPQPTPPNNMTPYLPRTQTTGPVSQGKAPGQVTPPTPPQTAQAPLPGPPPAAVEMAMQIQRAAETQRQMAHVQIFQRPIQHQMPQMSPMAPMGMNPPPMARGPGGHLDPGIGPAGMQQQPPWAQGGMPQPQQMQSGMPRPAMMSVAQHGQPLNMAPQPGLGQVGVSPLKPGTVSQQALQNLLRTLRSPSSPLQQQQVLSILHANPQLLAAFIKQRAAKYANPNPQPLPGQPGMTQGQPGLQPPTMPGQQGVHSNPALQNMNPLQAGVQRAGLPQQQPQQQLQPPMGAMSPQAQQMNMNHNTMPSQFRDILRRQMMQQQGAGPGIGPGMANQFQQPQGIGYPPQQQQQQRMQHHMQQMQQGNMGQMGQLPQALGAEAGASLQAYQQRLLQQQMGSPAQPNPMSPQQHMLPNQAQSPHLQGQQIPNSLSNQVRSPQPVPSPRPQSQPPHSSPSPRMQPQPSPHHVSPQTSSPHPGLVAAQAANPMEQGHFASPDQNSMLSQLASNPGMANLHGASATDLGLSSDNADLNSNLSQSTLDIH
# UniProt P45481: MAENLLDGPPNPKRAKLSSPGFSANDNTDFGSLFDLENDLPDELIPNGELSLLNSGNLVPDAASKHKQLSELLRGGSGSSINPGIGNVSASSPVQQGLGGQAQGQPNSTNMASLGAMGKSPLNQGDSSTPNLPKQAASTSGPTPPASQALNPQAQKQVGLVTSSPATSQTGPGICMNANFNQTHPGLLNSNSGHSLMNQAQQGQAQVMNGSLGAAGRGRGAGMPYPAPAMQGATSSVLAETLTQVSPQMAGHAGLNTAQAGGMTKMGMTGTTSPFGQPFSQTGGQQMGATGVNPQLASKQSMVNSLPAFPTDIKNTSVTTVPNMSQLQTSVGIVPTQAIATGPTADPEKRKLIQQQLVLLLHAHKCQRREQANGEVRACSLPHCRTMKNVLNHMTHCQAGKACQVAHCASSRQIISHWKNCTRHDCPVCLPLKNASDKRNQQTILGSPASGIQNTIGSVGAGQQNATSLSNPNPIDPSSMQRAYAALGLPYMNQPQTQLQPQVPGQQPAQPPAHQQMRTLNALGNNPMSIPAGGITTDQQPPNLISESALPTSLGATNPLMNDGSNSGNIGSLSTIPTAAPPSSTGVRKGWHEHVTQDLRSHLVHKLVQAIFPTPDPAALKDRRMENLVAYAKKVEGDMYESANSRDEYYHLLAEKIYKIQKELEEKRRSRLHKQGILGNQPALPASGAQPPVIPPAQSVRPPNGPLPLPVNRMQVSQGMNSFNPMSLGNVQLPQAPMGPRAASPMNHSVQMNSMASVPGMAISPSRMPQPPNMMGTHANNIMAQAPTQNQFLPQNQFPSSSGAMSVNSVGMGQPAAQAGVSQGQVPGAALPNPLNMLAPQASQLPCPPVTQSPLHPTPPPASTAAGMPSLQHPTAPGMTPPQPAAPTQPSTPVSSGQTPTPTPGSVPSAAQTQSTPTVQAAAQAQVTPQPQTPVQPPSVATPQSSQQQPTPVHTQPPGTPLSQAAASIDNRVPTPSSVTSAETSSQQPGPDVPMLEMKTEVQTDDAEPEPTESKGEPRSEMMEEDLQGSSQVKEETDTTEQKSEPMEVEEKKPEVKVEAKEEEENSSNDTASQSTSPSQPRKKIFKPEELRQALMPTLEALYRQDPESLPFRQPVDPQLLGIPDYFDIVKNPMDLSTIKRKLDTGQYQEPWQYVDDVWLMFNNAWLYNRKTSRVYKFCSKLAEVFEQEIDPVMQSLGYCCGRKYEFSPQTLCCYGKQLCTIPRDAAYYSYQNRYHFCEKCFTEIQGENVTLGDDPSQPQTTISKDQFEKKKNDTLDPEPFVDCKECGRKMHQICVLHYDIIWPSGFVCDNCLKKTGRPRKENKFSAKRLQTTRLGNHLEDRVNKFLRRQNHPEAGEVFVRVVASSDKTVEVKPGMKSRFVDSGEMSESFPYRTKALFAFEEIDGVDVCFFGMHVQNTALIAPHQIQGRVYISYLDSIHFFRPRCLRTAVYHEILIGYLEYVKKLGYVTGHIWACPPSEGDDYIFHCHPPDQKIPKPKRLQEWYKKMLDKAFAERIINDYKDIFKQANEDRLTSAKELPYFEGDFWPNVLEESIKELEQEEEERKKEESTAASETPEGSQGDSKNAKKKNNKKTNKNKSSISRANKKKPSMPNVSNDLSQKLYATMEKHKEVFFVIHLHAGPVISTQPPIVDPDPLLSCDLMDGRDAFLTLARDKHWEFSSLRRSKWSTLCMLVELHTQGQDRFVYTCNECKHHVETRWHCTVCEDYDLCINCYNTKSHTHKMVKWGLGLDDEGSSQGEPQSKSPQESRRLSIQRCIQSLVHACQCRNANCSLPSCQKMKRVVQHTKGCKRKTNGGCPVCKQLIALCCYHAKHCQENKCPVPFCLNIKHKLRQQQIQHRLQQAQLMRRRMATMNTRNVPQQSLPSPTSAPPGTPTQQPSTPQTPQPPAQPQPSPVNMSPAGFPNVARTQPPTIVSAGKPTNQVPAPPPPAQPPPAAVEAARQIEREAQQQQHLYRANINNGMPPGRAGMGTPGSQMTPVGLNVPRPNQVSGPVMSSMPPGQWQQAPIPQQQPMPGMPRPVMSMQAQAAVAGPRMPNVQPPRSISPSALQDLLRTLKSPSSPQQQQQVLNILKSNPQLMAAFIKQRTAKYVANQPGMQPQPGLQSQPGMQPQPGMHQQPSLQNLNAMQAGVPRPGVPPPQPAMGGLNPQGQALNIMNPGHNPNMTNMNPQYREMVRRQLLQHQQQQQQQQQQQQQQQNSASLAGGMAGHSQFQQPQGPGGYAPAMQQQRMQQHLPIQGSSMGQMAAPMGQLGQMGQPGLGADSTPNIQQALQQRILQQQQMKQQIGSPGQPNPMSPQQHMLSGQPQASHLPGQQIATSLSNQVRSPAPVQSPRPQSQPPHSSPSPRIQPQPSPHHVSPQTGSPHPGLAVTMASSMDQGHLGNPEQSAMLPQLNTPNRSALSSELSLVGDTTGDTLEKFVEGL
# UniProt P62259: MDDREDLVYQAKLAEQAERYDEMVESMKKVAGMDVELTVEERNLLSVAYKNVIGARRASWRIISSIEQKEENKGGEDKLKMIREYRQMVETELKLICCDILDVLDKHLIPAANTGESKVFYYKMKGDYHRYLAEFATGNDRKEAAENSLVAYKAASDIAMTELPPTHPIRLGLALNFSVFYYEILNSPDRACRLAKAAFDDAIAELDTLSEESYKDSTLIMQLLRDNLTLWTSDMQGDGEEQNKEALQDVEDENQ
# UniProt Q02248: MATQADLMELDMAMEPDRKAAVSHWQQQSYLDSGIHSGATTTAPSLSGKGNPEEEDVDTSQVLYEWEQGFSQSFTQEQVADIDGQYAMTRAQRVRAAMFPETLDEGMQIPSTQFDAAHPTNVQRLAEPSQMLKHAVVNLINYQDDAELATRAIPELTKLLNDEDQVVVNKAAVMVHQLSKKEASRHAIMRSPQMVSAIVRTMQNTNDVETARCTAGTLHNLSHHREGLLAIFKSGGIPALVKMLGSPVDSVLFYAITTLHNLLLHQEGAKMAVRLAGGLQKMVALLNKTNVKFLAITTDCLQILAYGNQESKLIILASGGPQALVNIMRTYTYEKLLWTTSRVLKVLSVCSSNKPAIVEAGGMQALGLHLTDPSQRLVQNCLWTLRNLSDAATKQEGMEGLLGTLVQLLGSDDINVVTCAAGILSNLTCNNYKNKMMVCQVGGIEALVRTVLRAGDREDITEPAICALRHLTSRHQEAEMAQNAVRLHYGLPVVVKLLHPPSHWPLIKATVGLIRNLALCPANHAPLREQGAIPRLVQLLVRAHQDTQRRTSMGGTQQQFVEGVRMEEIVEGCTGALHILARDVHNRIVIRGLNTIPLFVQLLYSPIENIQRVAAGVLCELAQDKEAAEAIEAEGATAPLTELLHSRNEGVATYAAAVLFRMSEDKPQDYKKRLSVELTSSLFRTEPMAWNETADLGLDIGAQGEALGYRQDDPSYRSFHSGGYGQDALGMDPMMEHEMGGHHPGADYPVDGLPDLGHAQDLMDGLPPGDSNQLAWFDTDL
# No constants are given. Whether binding was seen depends on the method and setting. In cells and extracts the contact can be indirect. Some binding calls cover weakened binding; strength is not graded here.
# Columns and labels:
# Assay in all cases: co-IP; nuclear extract of intestinal crypt cells of WT or p300 S89A mice; 100-500 ug nuclear protein in CoIP buffer (25 mM Tris-HCl pH 8.0, 1% NP40, 5% glycerol, 150 mM NaCl, 1 mM EDTA, 5 mM DTT); anti-CBP, anti-p300, anti-14-3-3ε or normal IgG overnight at 4 °C, Dynabeads Protein A; immunoblot for β-catenin, p300 or 14-3-3ε, densitometry
# [1] = target: p300 (Kat3B/E1A-binding protein, 300 kDa), wild type mouse (mouse (endogenous in intestinal crypt cells)) (UniProt B2RWS6)
# [2] = target: CBP (Kat3A/CREBBP, cAMP response element binding protein (CREB)-binding protein) (mouse (endogenous in intestinal crypt cells)) (UniProt P45481)
# [3] = target: p300 S89A (knock-in point mutant of mouse p300) (mouse (endogenous in intestinal crypt cells)) (UniProt B2RWS6)
binding [1],binding [2],binding [3],Substance
binds,,,14-3-3 epsilon (from UniProt P62259 1-255)
binds,binds,binds,β-catenin (from UniProt Q02248 1-781)
